The supplement of paper PMC11732987, “Enantioselective OTUD7B fragment discovery through chemoproteomics screening and high-throughput optimisation” (Communications Chemistry, 2025)
The list shows a part of the results. The data scatter; read single values as rough.

By UniProt entry, the sequences of proteins in these tests, tags left out. Where a name states a change or a piece, a line headed by the entry shows the natural chain unless it says otherwise. Residues count along the entry.
UniProt Q8IWI9, 36-59: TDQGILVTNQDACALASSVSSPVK
UniProt P29372: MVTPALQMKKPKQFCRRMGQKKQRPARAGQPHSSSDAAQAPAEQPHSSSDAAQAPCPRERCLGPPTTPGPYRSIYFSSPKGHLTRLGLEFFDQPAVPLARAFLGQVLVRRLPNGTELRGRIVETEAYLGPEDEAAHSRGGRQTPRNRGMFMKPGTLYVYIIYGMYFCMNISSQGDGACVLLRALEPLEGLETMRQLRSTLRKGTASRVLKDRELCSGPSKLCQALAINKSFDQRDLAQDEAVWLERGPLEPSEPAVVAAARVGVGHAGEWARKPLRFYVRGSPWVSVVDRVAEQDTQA
UniProt Q9NU22: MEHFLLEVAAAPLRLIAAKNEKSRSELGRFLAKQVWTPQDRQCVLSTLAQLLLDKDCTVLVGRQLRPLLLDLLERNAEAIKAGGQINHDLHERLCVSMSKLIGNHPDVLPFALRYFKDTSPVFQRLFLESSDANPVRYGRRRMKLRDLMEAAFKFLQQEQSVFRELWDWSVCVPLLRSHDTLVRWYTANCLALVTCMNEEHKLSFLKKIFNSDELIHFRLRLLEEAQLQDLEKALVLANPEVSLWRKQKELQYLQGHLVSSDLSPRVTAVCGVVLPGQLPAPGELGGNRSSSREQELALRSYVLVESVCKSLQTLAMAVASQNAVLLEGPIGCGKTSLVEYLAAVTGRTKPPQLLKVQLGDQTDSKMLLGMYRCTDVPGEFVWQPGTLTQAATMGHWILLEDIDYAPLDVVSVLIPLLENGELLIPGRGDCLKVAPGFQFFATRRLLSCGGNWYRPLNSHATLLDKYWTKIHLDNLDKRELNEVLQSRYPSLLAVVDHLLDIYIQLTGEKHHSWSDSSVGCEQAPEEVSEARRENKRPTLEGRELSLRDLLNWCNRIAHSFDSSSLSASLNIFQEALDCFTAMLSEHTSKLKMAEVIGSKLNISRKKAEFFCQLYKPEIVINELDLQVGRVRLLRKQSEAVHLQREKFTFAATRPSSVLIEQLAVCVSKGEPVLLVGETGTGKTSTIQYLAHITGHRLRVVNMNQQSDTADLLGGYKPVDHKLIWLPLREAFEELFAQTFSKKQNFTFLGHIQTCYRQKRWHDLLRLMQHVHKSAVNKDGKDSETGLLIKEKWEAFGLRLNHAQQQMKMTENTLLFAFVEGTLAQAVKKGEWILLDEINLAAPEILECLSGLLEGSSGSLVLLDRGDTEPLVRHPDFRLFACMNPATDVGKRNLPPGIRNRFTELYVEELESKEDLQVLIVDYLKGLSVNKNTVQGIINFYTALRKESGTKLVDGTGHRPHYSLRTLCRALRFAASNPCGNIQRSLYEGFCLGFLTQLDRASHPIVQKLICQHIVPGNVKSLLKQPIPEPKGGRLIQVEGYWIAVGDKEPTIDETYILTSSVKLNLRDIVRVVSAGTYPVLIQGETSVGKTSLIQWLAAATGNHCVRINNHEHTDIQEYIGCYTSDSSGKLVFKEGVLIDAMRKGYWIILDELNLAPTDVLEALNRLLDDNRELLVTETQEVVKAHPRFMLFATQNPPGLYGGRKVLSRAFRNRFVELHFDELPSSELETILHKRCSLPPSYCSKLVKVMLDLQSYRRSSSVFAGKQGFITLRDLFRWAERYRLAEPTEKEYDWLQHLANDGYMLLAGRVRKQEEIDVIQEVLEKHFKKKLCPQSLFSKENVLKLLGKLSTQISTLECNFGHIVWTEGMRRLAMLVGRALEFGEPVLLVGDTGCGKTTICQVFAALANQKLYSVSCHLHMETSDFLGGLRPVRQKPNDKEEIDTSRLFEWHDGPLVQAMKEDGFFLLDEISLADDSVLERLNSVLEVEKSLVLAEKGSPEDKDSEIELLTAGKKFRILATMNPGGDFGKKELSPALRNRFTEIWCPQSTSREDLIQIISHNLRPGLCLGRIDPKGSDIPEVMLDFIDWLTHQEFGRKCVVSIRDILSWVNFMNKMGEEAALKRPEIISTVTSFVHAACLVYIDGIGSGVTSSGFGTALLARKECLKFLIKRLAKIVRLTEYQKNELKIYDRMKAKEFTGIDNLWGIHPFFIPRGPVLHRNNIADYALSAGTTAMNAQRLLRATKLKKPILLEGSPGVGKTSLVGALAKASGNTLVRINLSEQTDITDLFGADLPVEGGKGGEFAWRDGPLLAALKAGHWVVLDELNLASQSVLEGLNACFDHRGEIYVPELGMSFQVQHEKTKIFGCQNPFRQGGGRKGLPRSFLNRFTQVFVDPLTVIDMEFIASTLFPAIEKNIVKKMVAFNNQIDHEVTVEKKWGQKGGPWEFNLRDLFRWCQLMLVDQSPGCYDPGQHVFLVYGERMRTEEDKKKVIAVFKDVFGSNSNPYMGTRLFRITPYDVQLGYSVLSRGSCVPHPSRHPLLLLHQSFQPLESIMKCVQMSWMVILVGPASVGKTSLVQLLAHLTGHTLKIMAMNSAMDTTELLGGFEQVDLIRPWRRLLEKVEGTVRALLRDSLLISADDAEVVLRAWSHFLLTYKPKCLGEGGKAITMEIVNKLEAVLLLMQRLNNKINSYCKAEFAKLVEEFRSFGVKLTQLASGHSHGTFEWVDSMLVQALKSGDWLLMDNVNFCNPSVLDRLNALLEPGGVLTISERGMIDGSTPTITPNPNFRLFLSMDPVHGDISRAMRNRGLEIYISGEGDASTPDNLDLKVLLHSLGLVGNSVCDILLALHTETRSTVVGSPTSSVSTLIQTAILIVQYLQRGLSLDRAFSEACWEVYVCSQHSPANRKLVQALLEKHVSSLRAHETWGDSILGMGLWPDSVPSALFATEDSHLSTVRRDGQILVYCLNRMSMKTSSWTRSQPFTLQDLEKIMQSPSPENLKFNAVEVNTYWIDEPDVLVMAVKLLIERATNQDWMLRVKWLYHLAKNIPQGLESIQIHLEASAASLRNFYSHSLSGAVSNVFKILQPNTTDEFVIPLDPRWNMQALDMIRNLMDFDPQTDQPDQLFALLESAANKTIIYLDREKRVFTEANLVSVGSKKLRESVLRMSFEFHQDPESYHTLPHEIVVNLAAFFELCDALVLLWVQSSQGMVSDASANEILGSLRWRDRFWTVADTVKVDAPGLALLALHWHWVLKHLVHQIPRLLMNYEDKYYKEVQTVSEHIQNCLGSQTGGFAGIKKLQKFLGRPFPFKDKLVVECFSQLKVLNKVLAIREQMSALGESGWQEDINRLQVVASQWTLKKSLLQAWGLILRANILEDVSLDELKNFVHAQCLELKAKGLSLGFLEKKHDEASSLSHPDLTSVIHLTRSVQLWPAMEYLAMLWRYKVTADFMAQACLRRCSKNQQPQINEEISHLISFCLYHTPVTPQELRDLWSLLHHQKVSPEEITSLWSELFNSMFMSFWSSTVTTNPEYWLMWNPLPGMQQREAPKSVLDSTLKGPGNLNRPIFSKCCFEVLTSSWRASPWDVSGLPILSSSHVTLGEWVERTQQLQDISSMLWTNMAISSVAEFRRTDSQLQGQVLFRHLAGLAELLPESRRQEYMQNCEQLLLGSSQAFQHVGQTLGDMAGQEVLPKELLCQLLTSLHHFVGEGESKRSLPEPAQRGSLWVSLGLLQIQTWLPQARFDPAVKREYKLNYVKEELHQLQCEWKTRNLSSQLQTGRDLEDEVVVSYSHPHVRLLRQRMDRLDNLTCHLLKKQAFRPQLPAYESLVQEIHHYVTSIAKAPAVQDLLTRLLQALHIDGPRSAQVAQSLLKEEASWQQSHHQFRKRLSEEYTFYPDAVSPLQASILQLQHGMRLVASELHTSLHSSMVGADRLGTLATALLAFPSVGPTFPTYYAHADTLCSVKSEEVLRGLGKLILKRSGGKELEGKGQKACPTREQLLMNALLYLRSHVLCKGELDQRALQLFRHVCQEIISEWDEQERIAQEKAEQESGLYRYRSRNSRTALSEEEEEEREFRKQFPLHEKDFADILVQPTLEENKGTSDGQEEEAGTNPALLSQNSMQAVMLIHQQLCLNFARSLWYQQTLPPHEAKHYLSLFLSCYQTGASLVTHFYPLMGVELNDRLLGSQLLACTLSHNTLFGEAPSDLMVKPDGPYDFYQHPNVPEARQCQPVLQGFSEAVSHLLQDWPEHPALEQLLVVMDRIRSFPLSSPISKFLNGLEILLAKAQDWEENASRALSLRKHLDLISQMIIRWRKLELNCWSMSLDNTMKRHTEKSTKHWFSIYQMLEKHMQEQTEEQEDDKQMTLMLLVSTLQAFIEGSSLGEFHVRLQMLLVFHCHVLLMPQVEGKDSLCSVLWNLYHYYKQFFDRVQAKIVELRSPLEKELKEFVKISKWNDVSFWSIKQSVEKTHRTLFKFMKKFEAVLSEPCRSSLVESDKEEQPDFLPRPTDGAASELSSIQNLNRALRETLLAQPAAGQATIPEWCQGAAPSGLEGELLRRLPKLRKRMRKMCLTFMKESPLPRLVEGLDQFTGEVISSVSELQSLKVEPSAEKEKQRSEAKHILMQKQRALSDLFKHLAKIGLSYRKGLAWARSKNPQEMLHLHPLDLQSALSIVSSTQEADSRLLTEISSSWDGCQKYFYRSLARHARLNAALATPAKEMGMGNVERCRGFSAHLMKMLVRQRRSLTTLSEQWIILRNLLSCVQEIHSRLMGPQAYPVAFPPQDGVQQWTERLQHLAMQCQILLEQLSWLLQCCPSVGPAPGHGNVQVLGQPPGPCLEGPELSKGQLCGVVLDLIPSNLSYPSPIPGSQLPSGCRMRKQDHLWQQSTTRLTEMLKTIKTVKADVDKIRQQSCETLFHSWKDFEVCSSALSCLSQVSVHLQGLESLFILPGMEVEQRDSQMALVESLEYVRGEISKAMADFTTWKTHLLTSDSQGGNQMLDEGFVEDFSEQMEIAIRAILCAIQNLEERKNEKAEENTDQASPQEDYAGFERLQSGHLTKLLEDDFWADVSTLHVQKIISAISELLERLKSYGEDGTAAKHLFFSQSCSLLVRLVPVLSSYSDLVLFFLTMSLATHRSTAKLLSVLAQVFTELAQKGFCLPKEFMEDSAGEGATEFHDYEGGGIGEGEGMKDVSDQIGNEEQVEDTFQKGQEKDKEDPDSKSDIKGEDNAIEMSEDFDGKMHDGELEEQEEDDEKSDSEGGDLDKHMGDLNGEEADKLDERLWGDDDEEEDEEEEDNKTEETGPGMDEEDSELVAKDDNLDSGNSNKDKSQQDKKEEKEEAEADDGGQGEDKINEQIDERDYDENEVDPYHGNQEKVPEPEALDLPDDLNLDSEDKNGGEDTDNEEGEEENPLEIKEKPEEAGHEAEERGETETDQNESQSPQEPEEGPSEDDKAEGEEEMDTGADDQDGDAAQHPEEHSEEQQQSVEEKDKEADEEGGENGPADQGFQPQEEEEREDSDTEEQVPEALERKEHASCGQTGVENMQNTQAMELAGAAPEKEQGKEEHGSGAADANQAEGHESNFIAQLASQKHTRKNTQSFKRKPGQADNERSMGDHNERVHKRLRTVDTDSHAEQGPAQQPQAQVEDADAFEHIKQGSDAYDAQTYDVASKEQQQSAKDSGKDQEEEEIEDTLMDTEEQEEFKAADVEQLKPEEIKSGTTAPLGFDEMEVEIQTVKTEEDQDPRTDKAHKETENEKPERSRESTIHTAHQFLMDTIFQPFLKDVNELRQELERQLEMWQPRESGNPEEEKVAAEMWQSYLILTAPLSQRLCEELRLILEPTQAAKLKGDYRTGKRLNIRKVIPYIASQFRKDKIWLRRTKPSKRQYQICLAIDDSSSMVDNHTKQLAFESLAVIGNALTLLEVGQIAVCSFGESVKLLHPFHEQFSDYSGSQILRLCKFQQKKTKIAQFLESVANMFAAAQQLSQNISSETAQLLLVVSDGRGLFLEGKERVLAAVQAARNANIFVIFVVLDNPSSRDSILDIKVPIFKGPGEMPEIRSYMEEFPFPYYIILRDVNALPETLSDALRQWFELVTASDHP
UniProt O95822: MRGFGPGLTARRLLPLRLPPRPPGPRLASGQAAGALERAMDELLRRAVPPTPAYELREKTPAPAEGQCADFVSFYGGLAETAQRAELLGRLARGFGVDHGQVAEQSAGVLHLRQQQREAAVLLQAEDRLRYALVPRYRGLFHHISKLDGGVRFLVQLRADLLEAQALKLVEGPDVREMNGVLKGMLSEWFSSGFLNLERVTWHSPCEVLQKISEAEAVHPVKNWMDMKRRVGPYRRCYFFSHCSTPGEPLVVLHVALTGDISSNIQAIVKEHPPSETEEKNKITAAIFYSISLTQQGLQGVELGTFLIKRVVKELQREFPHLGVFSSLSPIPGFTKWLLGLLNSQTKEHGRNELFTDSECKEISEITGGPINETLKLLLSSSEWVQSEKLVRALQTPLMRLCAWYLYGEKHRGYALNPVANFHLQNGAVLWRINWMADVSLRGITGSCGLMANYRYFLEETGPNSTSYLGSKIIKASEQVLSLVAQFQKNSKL
UniProt P21741: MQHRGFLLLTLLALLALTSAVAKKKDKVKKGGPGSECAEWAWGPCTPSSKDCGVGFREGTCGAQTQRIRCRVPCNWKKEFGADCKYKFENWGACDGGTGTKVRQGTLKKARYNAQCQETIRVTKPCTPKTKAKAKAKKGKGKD
UniProt Q7L2J0, 234-257: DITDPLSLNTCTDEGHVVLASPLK

The targets below were run with ClCC(=O)N[C@H]1CCCc2ccccc12 (assay: log2 mean competition ratio of IA-DTB cysteine labelling (DMSO/compound) (log2 ratio); higher = stronger cysteine engagement by compound). Details: 50 µM; treatment time: 4 h; cell line lysate: HEK293T.
Protocol: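 IA-DTB competitive cysteine chemoproteomics in HEK293T RIPA lysate. Lysates were treated with compound 29 or 30 at 50 or 200 µM for 4 h, then IA-DTB (500 µM, 1 h), trypsin-digested, NeutrAvidin-enriched and analysed by diaPASEF. Competition ratio = intensity DMSO / intensity compound (n=4 treated, n=64 DMSO); binding: mean log2 CR ≥ 1 and p ≤ 0.05 plus QC filters. Target is the cysteine site.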

Target	log2 mean competition ratio
MGA C48 (UniProt Q8IWI9)	0.0614
MPG C61 (UniProt P29372)	0.0462
MDN1 C2816 (UniProt Q9NU22)	-0.52
MDC1 C92 (UniProt Q14676)	-0.699
MRNIP C126 (UniProt Q6NTE8)	-0.00279
MIS18BP1 C528	0.00476
MORC4 C324	0.134
MKI67 C226 (UniProt P46013)	0.137
MLYCD C360 (UniProt O95822)	-0.22
MDN1 C882 (UniProt Q9NU22)	-0.398
MORC3 C671 (UniProt Q14149)	-0.202
MKLN1 C411 (UniProt Q9UL63)	-0.0609
MED13 C1274 (UniProt Q9UHV7)	-0.532
MED16 C267 (UniProt Q9Y2X0)	0.0114
MDN1 C4192 (UniProt Q9NU22)	0.139
MDK C52 (UniProt P21741)	-0.404
MMTAG2 C58 (UniProt Q9BU76)	-0.289
MID1 C375 (UniProt O15344)	-0.118
MKRN1 C186 (UniProt Q9UHC7)	-0.354
MEPCE C244 (UniProt Q7L2J0)	0.119

Same assay, conditions: 200 µM; treatment time: 4 h; cell line lysate: HEK293T

Target	log2 mean competition ratio
MGA C48 (UniProt Q8IWI9)	-0.0737
MPG C61 (UniProt P29372)	-0.0225
MDN1 C2816 (UniProt Q9NU22)	0.107
MDC1 C92 (UniProt Q14676)	0.115
MRNIP C126 (UniProt Q6NTE8)	-0.00853
MIS18BP1 C528	0.165
MORC4 C324	0.326
MKI67 C226 (UniProt P46013)	0.019
MLYCD C360 (UniProt O95822)	0.0327
MDN1 C882 (UniProt Q9NU22)	0.433
MORC3 C671 (UniProt Q14149)	-0.224
MKLN1 C411 (UniProt Q9UL63)	0.0798
MED13 C1274 (UniProt Q9UHV7)	-0.0196
MED16 C267 (UniProt Q9Y2X0)	0.0623
MDN1 C4192 (UniProt Q9NU22)	-0.0438
MDK C52 (UniProt P21741)	0.05
MMTAG2 C58 (UniProt Q9BU76)	0.295
MID1 C375 (UniProt O15344)	-0.51
MKRN1 C186 (UniProt Q9UHC7)	0.24
MEPCE C244 (UniProt Q7L2J0)	-0.299
